Test results published in PubChem BioAssay (EPA / NIEHS).
Several values for one entry are separate records, joined by “and”; a condition that tells them apart may be missing. Equal values may be shown once. Inconclusive means that the source gave no clear call. Such entries were picked first, then a sample of the others. Potencies of inconclusive entries are doubtful fits and often do not repeat. Activity calls are given as the source filed them. How the source made its calls: active means hit-call score of the fitted dose curve at least 0.9, where 1 is the maximum; inconclusive means response in the unintended direction; inactive means score below 0.9.

Amino acid sequences for entries named in this document (tags omitted). A change or cut given only in a name is not applied to a line headed by its entry.
UniProt P51955: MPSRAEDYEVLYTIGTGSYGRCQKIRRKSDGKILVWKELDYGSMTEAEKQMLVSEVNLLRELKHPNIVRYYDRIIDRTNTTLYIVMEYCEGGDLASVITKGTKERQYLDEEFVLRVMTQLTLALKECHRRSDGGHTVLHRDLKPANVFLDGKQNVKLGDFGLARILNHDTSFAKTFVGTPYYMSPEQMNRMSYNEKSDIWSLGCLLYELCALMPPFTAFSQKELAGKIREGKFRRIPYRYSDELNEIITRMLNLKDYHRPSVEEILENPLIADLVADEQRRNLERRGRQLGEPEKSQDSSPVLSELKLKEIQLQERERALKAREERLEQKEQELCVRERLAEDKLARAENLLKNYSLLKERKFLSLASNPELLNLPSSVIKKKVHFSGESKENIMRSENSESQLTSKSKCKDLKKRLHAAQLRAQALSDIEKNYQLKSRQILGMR

Each molecule was assayed against human NIMA (Never In Mitosis Gene A)-Related Kinase 2 (NEK2), NEK2 (gene 4751) (UniProt P51955) (assay: NVS_ENZ_hNEK2: NovaScreen (NVS) Enzymatic Assay for human NIMA (Never In Mitosis Gene A)-Related Kinase 2 (NEK2) (AID 2283188)).
Experimental: NVS_ENZ_hNEK2 is a biochemical, single-readout assay that uses extracted gene-proteins in a cell-free assay. Measurements were taken 1 hour after chemical dosing in a 384-well plate.NVS_ENZ_hNEK2 is one of one assay component(s) measured or calculated from the NVS_ENZ_hNEK2 assay. It is designed to make measurements of enzyme activity, a form of enzyme reporter, as detected with fluorescence intensity signals by Fluorescence and electrophoretic mobility shift technology.Data from the assay component NVS_ENZ_hNEK2 was analyzed into 1 assay endpoint. This assay endpoint, NVS_ENZ_hNEK2, was analyzed in the positive analysis fitting direction relative to DMSO as the negative control and baseline of activity. Using a type of enzyme reporter, loss-of-signal activity can be used to understand changes in the enzymatic activity as they relate to the gene NEK2. Furthermore, this assay endpoint can be referred to as a primary readout, because this assay has produced multiple assay endpoints where this one serves a enzymatic activity function. To generalize the intended target to other relatable targets, this assay endpoint is annotated to the kinase intended target family, where the subfamily is serine/threonine kinase.
Binding assays used specific radioligands (tritiated, iodinated) with non-radioactive competitive displacement ligands in agonist or antagonist protocols (as indicated) and various reference compounds and inhibitors to titrate specific binding to receptors and transporters. Most enzyme assays (CYPs, kinases, phosphatases, proteases, HDACs) used recombinant protein and specific substrates (fluorescence mostly, some colorimetric and radioactive) and inhibitors, followed by a biochemical separation of substrate and product. All assays for the biochemical HTS were initially run in duplicate at a single concentration (10 uM for CYP450 assays and 25 uM for all others). […] Each assay was run with positive and negative controls, and concurrent controls on every plate. The follow-up (secondary) screen tested active chemical-pairs in concentration series, as well as a few additional assays not tested in the primary screen, some selected negative inactives, and several cases re-run in the concentration series for confirmatory purposes.

Compound	AC50	outcome
CC(C)O.CC(C)O.OCCN(CCO)CCO.OCCN(CCO)CCO.[Ti]	active: 17.5 µM	–
Cc1ccc(N)cc1O	inconclusive: 25 µM	–
CC(C)(c1ccc(O)cc1)c1ccc(O)cc1	inconclusive: 8.01 µM	–
CN(C)c1ccc(N=NS(=O)(=O)O)cc1	–	inactive
S=C([S-])NCCNC(=S)[S-].[Mn+2]	inconclusive: 10.4 µM	–
CN1C(=O)N(c2ccccc2Br)Cc2cnc(Nc3ccc4c(c3)OCC(CO)O4)nc21 (stereo not drawn)	active: 0.00229 µM	–
CCCCCCCC/C=C\CCCCCCCC(=O)OC[C@@H](O)[C@H]1OC[C@H](O)[C@H]1O	inconclusive: 25 µM	–
O=C(O)Cc1cc(I)c(Oc2cc(I)c(O)c(I)c2)c(I)c1	inconclusive: 16.8 µM	–
Cc1nc(-c2ccccn2)ncc1C(=O)Nn1cc(C)c2cc(F)ccc21	–	inactive
COc1cc(C(=O)NC2CCN(C)CC2)ccc1Nc1ncc2c(n1)N(C1CCCC1)CC(F)(F)C(=O)N2C	–	inactive
S=C(S)NCCNC(=S)S.[Mn+2].[S-]C([S-])=NCCN=C([S-])[S-].[Zn+2]	inconclusive: 588 nM and inconclusive: 1.85 µM	–
CCN(CC)N=O	inconclusive: 1.24 µM	–
CCc1c(C(=O)NN2CCCCC2)nn(-c2ccc(Cl)cc2Cl)c1-c1ccc(Br)cc1	inconclusive: 0.393 µM	–
CC/C(=C(/CC)c1ccc(O)cc1)c1ccc(O)cc1	–	inactive
CC1(C)C(C=C(Cl)Cl)C1C(=O)OCc1cccc(Oc2ccccc2)c1 (stereo not drawn)	inconclusive: 2.62 µM	–
Oc1ccc(C(c2ccc(O)cc2)C(Cl)(Cl)Cl)cc1	–	inactive
CCCCC(CC)COC(=O)c1ccccc1C(=O)OCC(CC)CCCC (stereo not drawn)	inconclusive: 25 µM	–

In the list so far, these contain a halogen:
Compound	AC50	outcome
CN1C(=O)N(c2ccccc2Br)Cc2cnc(Nc3ccc4c(c3)OCC(CO)O4)nc21 (stereo not drawn)	active: 0.00229 µM	–
O=C(O)Cc1cc(I)c(Oc2cc(I)c(O)c(I)c2)c(I)c1	inconclusive: 16.8 µM	–
Cc1nc(-c2ccccn2)ncc1C(=O)Nn1cc(C)c2cc(F)ccc21	–	inactive
COc1cc(C(=O)NC2CCN(C)CC2)ccc1Nc1ncc2c(n1)N(C1CCCC1)CC(F)(F)C(=O)N2C	–	inactive
CCc1c(C(=O)NN2CCCCC2)nn(-c2ccc(Cl)cc2Cl)c1-c1ccc(Br)cc1	inconclusive: 0.393 µM	–
CC1(C)C(C=C(Cl)Cl)C1C(=O)OCc1cccc(Oc2ccccc2)c1 (stereo not drawn)	inconclusive: 2.62 µM	–
Oc1ccc(C(c2ccc(O)cc2)C(Cl)(Cl)Cl)cc1	–	inactive

Next part:

Compound	AC50	outcome
COC(=O)N(C(=O)N1CO[C@@]2(C(=O)OC)Cc3cc(Cl)ccc3C2=N1)c1ccc(OC(F)(F)F)cc1	–	inactive
CC(C)[C@H](C(=O)O[C@H](C#N)c1cccc(Oc2ccccc2)c1)c1ccc(Cl)cc1	inconclusive: 0.961 µM	–
O=C(O)C(F)(F)C(F)(F)C(F)(F)C(F)(F)C(F)(F)C(F)(F)C(F)(F)C(F)(F)F	active: 40.7 µM	–
CCCCCCCCCCCCc1cccc(S(=O)(=O)O)c1	active: 12.2 µM	–
CC(C)=CC1C(C(=O)OCc2coc(Cc3ccccc3)c2)C1(C)C (stereo not drawn)	inconclusive: 25 µM	–
CCCCC=O	–	inactive
Nc1cccc2c(N)cccc12	inconclusive: 0.908 µM	–
c1ccc(C(O[C@@H]2CCCN(CCc3ccc4c(c3)OCO4)C2)c2ccccc2)cc1	–	inactive
O=C(O)C1(C(=O)Nc2ccc(Cl)cc2Cl)CC1	inconclusive: 1.66 µM	–
FC(F)(F)C(F)(F)C(F)(F)C(F)(F)C(F)(F)C(F)(F)CCI	inconclusive: 23.1 µM	–
CCCCCCC(C)OC(=O)COc1nc(F)c(Cl)c(N)c1Cl (stereo not drawn)	inconclusive: 19.9 µM	–
CC(C)(C)c1csc(-c2cc3cc(OCc4ccccc4CC(=O)O)ccc3o2)n1	–	inactive
CC(O)CC(C)(C)O (stereo not drawn)	inconclusive: 44.4 µM	–
O=C(O)c1cccc(Oc2ccccc2)c1	inconclusive: 25 µM	–
Cc1[nH]nc2c1N=C(c1ccccc1Cl)c1cc([N+](=O)[O-])ccc1N2	inconclusive: 42.3 µM	–
Clc1cccc(Cl)c1Cl	–	inactive
